Patent US20160178622
For at least one entry, the source does not settle the construct or the ends of the probe. A negative result means that nothing was seen under these conditions. Tags and fusion partners may be left off the protein sequences shown.

Biological target: T1, Ara h 2 (peanut allergen) (UniProt Q6PSU2)
T1 sequence (looked up, limits assumed): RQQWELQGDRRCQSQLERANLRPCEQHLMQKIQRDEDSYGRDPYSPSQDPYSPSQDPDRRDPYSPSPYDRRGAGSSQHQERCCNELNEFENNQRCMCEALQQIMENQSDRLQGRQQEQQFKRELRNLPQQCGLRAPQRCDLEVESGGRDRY
Test: binding assay
Settings: 5' amino group with C6 carbon spacer; CITED binding of Ara h 2 to aptamer considered negligible as documented in the art; competitor reference experiment on aptasensor mentioned but result not given; purified native protein; single-stranded DNA

“TCGCACATTCCGCTTCTACCGGGGGGGTCGAGCTGAGTGGATGCGAATCTGTGGGTGGGCCGTAAGTCCGTGTGTGCGAA [Ara h 1 aptamer (Tran et al.)]”: no binding.
